Results published in PMC10529574.
Results are given in words; binding and its absence hold for the method and conditions named. Binding seen in cells or lysates may run through a third protein. Some entries that bind do so weakly or less than the wild type.

By UniProt entry, the sequences of proteins in these tests, tags left out.
UniProt P38159: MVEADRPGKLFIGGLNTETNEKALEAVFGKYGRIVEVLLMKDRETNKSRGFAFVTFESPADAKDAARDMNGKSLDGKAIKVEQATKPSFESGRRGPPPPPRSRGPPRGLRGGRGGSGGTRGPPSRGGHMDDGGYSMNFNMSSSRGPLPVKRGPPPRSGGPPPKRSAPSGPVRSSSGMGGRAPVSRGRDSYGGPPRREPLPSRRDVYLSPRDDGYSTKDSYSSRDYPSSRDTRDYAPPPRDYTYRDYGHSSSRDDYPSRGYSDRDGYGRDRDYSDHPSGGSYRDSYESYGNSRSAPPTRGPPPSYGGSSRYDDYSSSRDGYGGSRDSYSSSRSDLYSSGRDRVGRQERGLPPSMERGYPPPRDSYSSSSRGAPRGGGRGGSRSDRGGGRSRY

Target: GFP-tagged RBMX (RNA binding motif protein encoded on the X chromosome) (UniProt P38159)
Test: co-IP; anti-GFP antibody precipitates ectopically expressed GFP-tagged RBMX from 293T cells in RNase-free condition; endogenous ZCCHC8 detected by western blot in half of the eluate

B1: ZCCHC8 (nuclear exosome targeting protein) (protein, UniProt Q6NZY4 1-707)
chain: MAAEVYFGDLELFEPFDHPEESIPKPVHTRFKDDDGDEEDENGVGDAELRERLRQCEETIEQLRAENQELKRKLNILTRPSGILVNDTKLDGPILQILFMNNAISKQYHQEIEEFVSNLVKRFEEQQKNDVEKTSFNLLPQPSSIVLEEDHKVEESCAIKNNKEAFSVVGSVLYFTNFCLDKLGQPLLNENPQLSEGWEIPKYHQVFSHIVSLEGQEIQVKAKRPKPHCFNCGSEEHQMKDCPMPRNAARISEKRKEYMDACGEANNQNFQQRYHAEEVEERFGRFKPGVISEELQDALGVTDKSLPPFIYRMRQLGYPPGWLKEAELENSGLALYDGKDGTDGETEVGEIQQNKSVTYDLSKLVNYPGFNISTPRGIPDEWRIFGSIPMQACQQKDVFANYLTSNFQAPGVKSGNKRSSSHSSPGSPKKQKNESNSAGSPADMELDSDMEVPHGSQSSESFQFQPPLPPDTPPLPRGTPPPVFTPPLPKGTPPLTPSDSPQTRTASGAVDEDALTLEELEEQQRRIWAALEQAESVNSDSDVPVDTPLTGNSVASSPCPNELDLPVPEGKTSEKQTLDEPEVPEIFTKKSEAGHASSPDSEVTSLCQKEKAELAPVNTEGALLDNGSVVPNCDISNGGSQKLFPADTSPSTATKIHSPIPDMSKFATGITPFEFENMAESTGMYLRIRSLLKNSPRNQQKNKKASE
With B1 the binding was “binds”.
